Data set [1] has as its system AmtR (Mycobacterium smegmatis). In words: pull-down. The conditions noted are these: control protein; Pull-down: 10 mM HEPES pH 7.5, 20 mM KCl, 1 mM MgCl2, 1 mM DTT, room temperature 15 min; 400 nM biotinylated RNA, 800 nM protein (Results state 1:1 molar); recombinant protein; protein details: His (anti-His detection); label: 3' biotin (pull-down).
For a further data set, the target named is T1, PfPPR1 (tag removed) (UniProt Q8IM30).
T1 sequence (looked up): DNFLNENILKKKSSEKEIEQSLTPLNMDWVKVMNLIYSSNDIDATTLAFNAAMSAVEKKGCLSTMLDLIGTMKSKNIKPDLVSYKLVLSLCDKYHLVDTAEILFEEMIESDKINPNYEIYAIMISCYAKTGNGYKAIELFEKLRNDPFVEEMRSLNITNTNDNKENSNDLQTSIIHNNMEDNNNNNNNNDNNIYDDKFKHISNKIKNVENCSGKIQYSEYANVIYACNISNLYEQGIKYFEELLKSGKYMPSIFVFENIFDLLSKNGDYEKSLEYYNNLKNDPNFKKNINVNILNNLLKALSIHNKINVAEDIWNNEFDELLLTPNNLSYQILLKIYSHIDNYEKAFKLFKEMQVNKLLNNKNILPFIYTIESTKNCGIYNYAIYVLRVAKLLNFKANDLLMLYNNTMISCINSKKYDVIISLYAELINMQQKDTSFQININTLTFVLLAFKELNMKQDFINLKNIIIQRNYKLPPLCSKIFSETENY
Kind of data set: pull-down. The settings on record: TRX tag removed; Pull-down: 10 mM HEPES pH 7.5, 20 mM KCl, 1 mM MgCl2, 1 mM DTT, room temperature 15 min; 400 nM biotinylated RNA, 800 nM protein (Results state 1:1 molar); recombinant protein; residues 121-608; label: 3' biotin (pull-down).

This note sets out measurements from paper PMC6899631, “An essential pentatricopeptide repeat protein in the apicomplexan remnant chloroplast”.

Construct, isoform or probe ends are uncertain for at least one entry. For some assays here: Negatives hold for the conditions tested. For some assays here: At least one verdict rests on a figure or table, not on a statement of the authors. For some assays here: Tags and fusion partners may be left off the protein sequences shown.

In the case of ACGACAUUAUAUGGUCGGA [RNA oligo 1], the values for the binding result (in data set [1]; in the data set with PfPPR1 (tag removed)) were “no binding” and “binds”, respectively.
